Common to all, as to experiment: normalised response (% of control), CellTox Green; higher = less cell death (100 = DMSO, 0 = benzethonium chloride kill control)
What all share (details): incubation time: 72 h

Assay [1] concerns Hs578T. The procedure:
(§1)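 DSRT, 72 h incubation, CellTox Green / CellTiter-Glo readout. Signal is normalised to DMSO and benzethonium chloride controls. Value is the normalised response at dose 2.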

For assay [2], the system named is BT-549. The method, then:
as §1

In assay [3] the test system is MFM-223. The method, then:
as §1

Assay [4] relates to DU-4475. The method, then: as §1
Assay [5] has as its system CAL-120. The procedure:
as §1

For assay [6], the system named is BT-474. The procedure:
as §1

In assay [7] the test system is HCC1937. The method, then:
as §1

The test system of assay [8] is CAL-51. The method, then: as §1
The test system of assay [9] is MDA-MB-453. The procedure: as §1
The subject of assay [10] is MDA-MB-436. The method, then: as §1
The subject of assay [11] is HCC1599. The method, then: as §1
Assay [12] concerns MDA-MB-468. The method, then:
as §1

Assay [13] has as its system CAL-85-1. The procedure:
as §1

Assay [14] has as its system HDQ-P1. The method, then:
as §1

Assay [15] concerns MDA-MB-231. The procedure:
as §1

For assay [16], the system named is MCF-10A. The method, then: as §1
Assay [17] relates to HCC1143. The method, then: as §1
The test system of assay [18] is CAL-148. The method, then:
as §1

Small differences around the control level are noise.

On to `COCC[n+]1c2c(n(Cc3cnccn3)c1C)C(=O)c1ccccc1C2=O` [YM155] (10 nM), for which the normalised response in assay [1] was 119%; in assay [2] it was 104%; in assay [3], 99.5%; in [4], 103%; in [5], 26.4%; in assay [6], 83.5%. For the same compound, the normalised response in assay [7] worked out at 71.6%; in assay [8], 83.7%; in [9], 99.2%; in assay [10] it was 89.3%; in assay [11], 93.5%; in assay [12], 50.6%. The normalised response in assay [13] was 11.1%; in assay [14], 109%; in assay [15] it was 76.2%; in [16] it was 60.9%; in [17], 40.5%; in assay [18] it was 83.7%.

The record behind these values is the supplement of paper PMC4862054.
